# Some of the results follow. Further columns of the screen follow, without active or inactive calls. The list favours compounds with an active or inconclusive main result. The note in brackets gives the kind of curve behind each potency; many fits are weak.
# Assay: qHTS Assay for Lipid Storage Modulators in Drosophila S3 Cells;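 for cell number change: cells counted by Cell Tracker Red CMTPX staining in the red channel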
# Conditions: BODIPY lipid droplet fluorescence, 18-24 h; for cell number change: measured here: cell count max response, cells fed with added oleic acid
# In short: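 Drosophila S3 cells loaded with oleic acid (400 uM, as added) and compounds at several concentrations; lipid droplets imaged by 488-nm laser-scanning cytometry, 500–530 nm intensity and object ratio to cell channel. Percent activity normalized to 20 uM Triacsin C.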
# [1] = measured here: cell number channel AC50, cells fed with added oleic acid
# [2] = measured here: lipid fluorescence (Fed channel) AC50, cells fed with added oleic acid
SMILES,cell number change [%],AC50 [1],AC50 [2]
COc1cc2c(cc1OC)C(=O)CC(C)S2 (stereo unspecified),-9.66,"0.00517 µM [falling, full curve, poor fit]",
CCOC(=O)C1=C(NC(=S)NC(=O)c2ccccc2)c2ccccc2CC1(C)CC (stereo unspecified),-38,"7.31 µM [falling, partial curve, poor fit]",
CC(NC(=O)/C=C/c1ccco1)c1nc2ccccc2n1Cc1cccc(Cl)c1 (stereo unspecified),-0.476,,"1.3 µM [falling, single point]"
COCCN(CC1CCCN(C2Cc3ccccc3C2)C1)C(=O)c1cccc(C)c1 (stereo unspecified),-4.2,,
COc1ccc(NC(=O)Nc2ccc(CC(=O)O)cc2)cc1,,,"5.8 µM [falling, full curve]"
CCCCOC(=O)CCc1c(C)[nH]c(=O)c(C#N)c1C,17.9,,"2.31 µM [rising, single point]"
Cc1ccc(CS(=O)(=O)Cc2ccc(C(=O)NCCc3ccccc3)o2)cc1,7.31,,"6.51 µM [rising, single point]"
CCCN(CC(=O)Nc1ccccc1C)C(=O)COc1c(C)cccc1C,-10.6,,"11.6 µM [rising, partial curve]"
Cc1nn(Cc2ccccc2Cl)c2sc(C(=O)Nc3nccs3)cc12,14.8,"1.16 µM [rising, partial curve]","0.82 µM [rising, partial curve]"
Cc1ccc(C(=O)N/N=C2\CC3CC=CC23)c(C)c1 (stereo unspecified),77.5,"16.4 µM [rising, partial curve]",
COc1ccc(-n2nc(C(=O)NCC(=O)N3CCCC(C)C3)c3ccccc3c2=O)cc1 (stereo unspecified),-7.66,,"29.1 µM [falling, single point]"
CCOc1ccccc1C(=O)N(C)Cc1cc2ccccc2[nH]c1=O,65.6,"5.8 µM [rising, full curve]","9.2 µM [rising, partial curve]"
O=c1c2ccccc2nc(-c2ccc([N+](=O)[O-])cc2)n1O,17.9,,
C(=C\c1ccccc1)/C=N/n1cnnc1,1.78,,"0.291 µM [falling, full curve, poor fit]"
CC(C)N(Cc1ccccc1)S(=O)(=O)N(C)C,-3.57,,
COc1ccc(NC(=O)c2ccc([N+](=O)[O-])cc2[N+](=O)[O-])c(OC)c1,,"0.411 µM [falling, partial curve, poor fit]",
O=C(NCC1CCN(c2ccc(S(=O)(=O)N3CCOCC3)cc2)CC1)Nc1ccccc1F,4.17,,
CC1CN(Cc2cc(=O)oc3cc(O)ccc23)CC(C)O1 (stereo unspecified),3.91,,
O=c1cc(-c2ccccc2)nc(SCc2ccccc2F)[nH]1,2.55,,
CCC1(C)Cc2ccccc2-c2nc(-c3ccccc3)oc(=O)c21 (stereo unspecified),12.6,,"29.1 µM [rising, single point]"
COc1ccc(NC(=O)CC2C(=O)N(Cc3cccs3)C(=S)N2C(C)C)cc1 (stereo unspecified),16.2,"0.461 µM [rising, single point]","0.206 µM [rising, full curve]"

SMILES,cell number change [%],AC50 [1],AC50 [2]
CCN(CC)S(=O)(=O)c1ccc(/C=C/C(=O)OCC(=O)N(C(C)C)C(C)C)cc1,-46.9,,
CCOc1ccc(CCNC(=O)CSC(=S)N2CCCC2)cc1OCC,-36.5,"0.58 µM [falling, partial curve, poor fit]",
Cc1ccc(NC(=O)CCC(C(=O)O)N2C(=O)c3ccccc3C2=O)cc1 (stereo unspecified),8.92,,
N#C/C(=C(/O)Cc1cccc2ccccc12)c1nc2ccccc2s1,0.542,,"6.51 µM [falling, single point]"
CCc1nc(N2CCN(c3nc(C)cc(C)n3)CC2)c2oc3ccccc3c2n1,24,,"0.231 µM [rising, full curve]"
CCOc1ccccc1C1C(C(=O)OC)=C(N)OC2=C1C(=O)CCC2 (stereo unspecified),17.3,"6.51 µM [rising, single point]","6.51 µM [rising, partial curve]"
O=C(COC(=O)Cc1ccc(Cl)cc1)Nc1ccc2[nH]c(=O)[nH]c2c1,34.6,"29.1 µM [rising, single point]",
Cn1nnnc1SCC(=O)Nc1ccc(Cl)cc1Cl,-0.329,,"0.00461 µM [falling, full curve, poor fit]"
CCOC(=O)CC1C(=O)NCCN1C(=O)COc1ccc(C(C)(C)C)cc1 (stereo unspecified),7.14,,
Cc1ccc(-n2nc(-c3cccs3)cc2C(=O)NCC2CCCO2)c(C)c1 (stereo unspecified),,,"6.51 µM [rising, single point]"
c1ccc(C2OCC3(CO2)COC(c2ccccc2)OC3)cc1 (stereo unspecified),-16.1,"6.51 µM [falling, single point]","6.51 µM [falling, single point]"
O=C(CC(n1cncn1)C(Cl)(Cl)Cl)c1ccc([N+](=O)[O-])cc1 (stereo unspecified),-60.3,"32.6 µM [falling, single point]",
Cc1sc(N)c(C(=O)c2ccccc2)c1C,-28.8,,"32.6 µM [falling, single point]"
Cc1cc(C(=O)NC(C)C2CCCO2)cs1 (stereo unspecified),4.14,,"14.6 µM [falling, single point]"
CCOC(=O)Cc1csc(NC(=O)CSc2nnnn2-c2ccc(F)cc2)n1,-31.5,"29.1 µM [falling, single point]",
Cc1cc(OCC(=O)OCC(=O)Nc2cccnc2Cl)ccc1Cl,-11.5,,
N#Cc1nc(COc2ccc(-c3ccccc3)cc2)oc1NCc1cccnc1,-26.4,,"0.651 µM [rising, full curve]"
Cc1cc(Cl)ccc1OC(C)C(=O)NN=C1CCCCCC1 (stereo unspecified),-2.86,,"29.1 µM [rising, partial curve]"
COc1ccc(-c2csc(NS(=O)(=O)c3ccc([N+](=O)[O-])cc3)n2)cc1,6.02,"0.13 µM [falling, full curve, poor fit]","0.651 µM [falling, single point]"
CN(Cc1ccccc1OCCO)CC1CCCN(CCc2ccc(Cl)cc2)C1 (stereo unspecified),6.32,,"9.2 µM [rising, partial curve]"
C=CCOc1cccc(C2/C(=C(\O)c3ccc4c(c3)OCCO4)C(=O)C(=O)N2CCN2CCOCC2)c1 (stereo unspecified),-20.6,,

# Filtered by structure: the entries above containing a COOH group (two)
SMILES,cell number change [%],AC50 [1],AC50 [2]
COc1ccc(NC(=O)Nc2ccc(CC(=O)O)cc2)cc1,,,"5.8 µM [falling, full curve]"
Cc1ccc(NC(=O)CCC(C(=O)O)N2C(=O)c3ccccc3C2=O)cc1 (stereo unspecified),8.92,,

# Next part.

SMILES,cell number change [%],AC50 [1],AC50 [2]
Cc1ccc(OCC(=O)NC(=S)Nc2ccccn2)c(Br)c1,-4.91,,
COc1ccc(Cl)cc1NC(=S)N(Cc1ccccc1C)CC1CCC(C(=O)O)CC1 (stereo unspecified),-9.07,,"0.58 µM [rising, partial curve]"
CN(C)/C=C/C(=O)c1ccc(S(=O)c2ccccc2)cc1 (stereo unspecified),12.6,"0.13 µM [falling, full curve, poor fit]",
COc1ccc(CCNS(=O)(=O)c2ccc3c(c2)CCN3C(=O)CCC(=O)O)cc1OC,-137,"4.11 µM [falling, full curve]",
CCOc1ccccc1NS(=O)(=O)c1cc2c3c(c1)C(C)C(=O)N3CCC2 (stereo unspecified),,,"29.1 µM [falling, single point]"
C=C(C)Cn1c(Sc2nnc(C)s2)nc2c1c(=O)[nH]c(=O)n2C,-6.35,,"20.6 µM [falling, partial curve, poor fit]"
N#CCC(=O)Nc1ccc(C(=O)OCC(=O)C23CC4CC(CC(C4)C2)C3)cc1,-36.2,"1.46 µM [falling, full curve]","3.26 µM [falling, full curve, poor fit]"
COc1ccc(C2C(C#N)=C(N)OC3=C2C(=O)CCC3)cc1Cn1nc(C)c([N+](=O)[O-])c1C (stereo unspecified),45,"5.17 µM [rising, full curve]","6.51 µM [rising, single point]"
CC1CCC(NC(=O)c2nn(C)c3c2CS(=O)(=O)c2ccccc2-3)CC1 (stereo unspecified),-20.5,,
O=C(Oc1ccc2c(=O)c(Oc3ccc4ccccc4c3)coc2c1)c1ccco1,-14.6,,"4.61 µM [falling, single point]"
Cc1cccc(N=C2NC(=O)S/C2=C\c2ccco2)c1,0.427,,"0.366 µM [rising, full curve, poor fit]"
Cc1ccc(NC(=O)c2c(C)nc3sc(C(=O)NC4CCCC4)c(N)c3c2-c2ccco2)c(C)c1,26.3,,"29.1 µM [rising, single point]"
N=C1S/C(=C\c2ccco2)C(=O)N1c1nccs1,-1.09,,"6.51 µM [rising, single point]"
Cc1ccc(NS(=O)(=O)c2ccc(C(=O)NCC(c3ccco3)N(C)C)cc2)cc1 (stereo unspecified),-4.69,,"6.51 µM [falling, full curve]"
CN(C)C(=O)/C(=C\c1ccc(-c2cccc([N+](=O)[O-])c2)o1)NC(=O)c1ccccc1,10.5,,"0.651 µM [falling, single point]"
CCCCCCn1c(CN2CCN(CCO)CC2)nc2c1c(=O)n(C)c(=O)n2C,,,"4.11 µM [falling, partial curve, poor fit]"
O=C(NCc1ccncc1)C1CCN(S(=O)(=O)Cc2ccccc2)CC1,24.6,,"0.651 µM [falling, single point]"
CCN1C(=O)c2ccc(C(=O)NCc3ccco3)cc2C1=O,-8.91,,
COc1ccc(CCC(=O)Nc2nnc(C(F)(F)F)s2)cc1,41.3,"7.31 µM [rising, partial curve, poor fit]","29.1 µM [rising, single point]"
COc1cc(/C(O)=C(\C#N)c2nc3ccccc3[nH]2)cc(OC)c1OC,-3.86,,"6.51 µM [rising, single point]"
COc1cc(-c2nc(-c3ccc4c(c3)-c3ccccc3S4(=O)=O)c(-c3ccccc3)[nH]2)cc(OC)c1OC,10.3,,"0.58 µM [rising, single point]"

# From PubChem BioAssay AID2685 (National Center for Advancing Translational Sciences (NCATS), 2010)
